Reference: CN117083298A
Positions count from the first letter of the chain named. No constants are given. Whether binding was seen depends on the method and setting. Some entries that bind do so weakly or less than the wild type. Each block holds one binder with its values, some of them ahead of it.

Chains of the proteins cited; added tags and fusions are not shown. Lines headed by an entry give the natural chain unless they say otherwise; changes in a name come on top.
UniProt P10636: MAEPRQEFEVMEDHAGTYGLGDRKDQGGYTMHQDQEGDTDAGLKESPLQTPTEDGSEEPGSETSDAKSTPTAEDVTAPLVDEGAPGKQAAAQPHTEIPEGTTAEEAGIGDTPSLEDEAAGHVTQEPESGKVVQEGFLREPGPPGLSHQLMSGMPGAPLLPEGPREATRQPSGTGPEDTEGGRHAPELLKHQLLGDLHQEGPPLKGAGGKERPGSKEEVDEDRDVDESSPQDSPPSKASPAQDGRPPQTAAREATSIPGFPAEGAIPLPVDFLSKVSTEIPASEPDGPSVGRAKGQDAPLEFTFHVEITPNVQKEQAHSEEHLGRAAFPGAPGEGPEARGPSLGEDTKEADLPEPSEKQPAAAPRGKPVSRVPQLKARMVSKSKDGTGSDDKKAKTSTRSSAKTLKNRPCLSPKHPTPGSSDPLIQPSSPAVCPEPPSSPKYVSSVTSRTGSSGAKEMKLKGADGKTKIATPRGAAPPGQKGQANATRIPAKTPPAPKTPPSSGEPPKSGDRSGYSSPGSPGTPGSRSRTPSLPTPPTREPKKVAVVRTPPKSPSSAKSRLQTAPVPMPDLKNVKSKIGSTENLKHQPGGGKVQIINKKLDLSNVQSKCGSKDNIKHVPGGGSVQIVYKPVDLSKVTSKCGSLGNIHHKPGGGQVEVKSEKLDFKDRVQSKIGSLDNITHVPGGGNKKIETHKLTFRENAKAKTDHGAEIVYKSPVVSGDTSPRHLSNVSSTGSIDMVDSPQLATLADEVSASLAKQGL

Molecular target: 人全长重组tau(2N4R) (human) (UniProt P10636)
Assay: SPR, Biacore T200, 25 °C, mAb captured by anti-Fc on a CM4 chip, tau as analyte, 1:1 Langmuir fit

binding: binds
B1: PT1B635 (antibody, human IgG1, kappa, V domains shown)
VH: QVQLVQSGAEVKKPGASVKVSCKASGYTFTSYWITWVRQAPGQGLEWMGDIHPGRGSTKYAQKLQGRVTLTTDTSTSTAYMELRSLRSDDTAVYYCARRWGFDYWGQGTLVTVSS
VL: DIVITQTPLSLPVTPGEPASISCRSSKSLLYKDGKTYLNWFLQKPGQSPQLLIYLMSTRASGVPDRFSGSGSGTDFTLKISRVEAEDVGVYYCQQLVDYPLTFGQGTKLEIKR

binding: binds
B2: PT1B901 (antibody, human IgG1, kappa, V domains shown)
VH: B1 VH
VL: B1 VL with G34L
